Several values for one entry are separate records, joined by “and”; a condition that tells them apart may be missing. Equal entries are not always repeated.
How the values were obtained:
[1] = Static thermostability of the stabilized resin, simplified method (GARDNER sub-scale in polyvinyl chloride sheets)
Experimental: (§1) These studies were performed with five different formulae of vinyl resins (hereinafter referred to as Compounds).
(§2) The different Compounds were mixed and calendered in a mixer of which the cylinders were heated to 160° C. The rigid sheets so obtained were then heated in an oven to a temperature between 180° C and 215° C, until incipient carbonization.
(§3) A stove with rotating drums, ventilated and equipped with a thermostat was used for this operation. In the trials described hereunder, the behaviour of the sheets containing one of the stabilizers to be tested was compared to that of sheets of the same formulae but containing 2-phenylindole as stabilizer.
(2) It is also possible to use a simplified method which is more rapid and with which valid results are also obtained: A reference scale is drawn up with sheets of thermally treated polyvinyl chloride, of which the colorations have been definitely determined in GARDNER degrees as above.
A GARDNER sub-scale is thus obtained in polyvinyl chloride sheets which can be directly compared to the sheets to be tested without using the comparator.

[2] = Static thermostability of the stabilized resin, GARDNER Scale comparator; conditions: Compound B, 210° C, 21 min
Experimental: as §1, §2, §3
(1) The coloration of the sheets, of which samples were removed from the stove at fixed intervals, was compared to a standard scale of coloration, known as the GARDNER Scale and expressed in terms of the reference figures of the GARDNER Scale.
Comparisons were made with a GARDNER Scale comparator which contains 18 filters of coloured glass and which offers the possibility of observing by transparency and in a limited field of view both the sheet and the reference filters.

Structure (SMILES)	Coloration of sheet ([1]; Compound A, 210° C, 0 min) [GARDNER degrees]	Coloration of sheet ([1]; Compound A, 210° C, 3 min)	Coloration of sheet ([1]; Compound A, 210° C, 6 min) [GARDNER degrees]	Coloration of sheet ([1]; Compound A, 210° C, 9 min) [GARDNER degrees]	Coloration of sheet ([1]; Compound A, 210° C, 12 min) [GARDNER degrees]	Coloration of sheet ([1]; Compound A, 210° C, 15 min) [GARDNER degrees]	Coloration of sheet ([1]; Compound A, 210° C, 18 min)	other results
CCCCOc1ccc(-c2cc3ccccc3[nH]2)cc1OC [Stabilizer 25, 2-(3'-methoxy-4'-butyloxy-phenyl)-indole]	1	1 GARDNER degrees	2	3	9	12	Burnt	
CCCCCCCCCCCCOc1ccc(-c2cc3ccccc3[nH]2)cc1C [Stabilizer 30, 2-(3'-methyl-4'-dodecyloxy-phenyl)-indole]	1	1 GARDNER degrees	3	5	6	13	Burnt	
CCCCCCCCCCCCc1cc(-c2cc3ccccc3[nH]2)ccc1OC [Stabilizer 14, 2-(3'-dodecyl-4'-methoxy-phenyl)-indole]	1	1 GARDNER degrees	2	5	8	10	16 GARDNER degrees	
COc1cc(-c2cc3ccccc3[nH]2)ccc1OC(C)C [Stabilizer 27, 2-(3'-methoxy-4'-isopropyloxy-phenyl)-indole]	1	1 GARDNER degrees	1	3	4	9	13 GARDNER degrees	
CCCOc1ccc(-c2cc3ccccc3[nH]2)cc1OC [Stabilizer 26, 2-(3'-methoxy-4'-propyloxy-phenyl)-indole]	1	1 GARDNER degrees	1	2	3	4	10 GARDNER degrees	
COc1ccc(-c2cc3ccccc3[nH]2)cc1OCc1ccccc1 [Stabilizer 29, 2-(3'-benzyloxy-4'-methoxy-phenyl)indole]	1	1 GARDNER degrees	1	4	10	13	Burnt	
Oc1ccc(-c2cc3ccccc3[nH]2)cc1C1CCCCC1 [Stabilizer 21, 2-(3'-cyclohexyl-4'-hydroxy-phenyl)-indole]	1	1 GARDNER degrees	2	3	8	12	14 GARDNER degrees	
CCOc1ccc(-c2cc3ccccc3[nH]2)cc1C [Stabilizer 35, 2-(3'-methyl-4'-ethoxy-phenyl)-indole]	1	1 GARDNER degrees	2	5	5	11	12 GARDNER degrees	
CCOc1c(C)cc(-c2cc3ccccc3[nH]2)cc1C [Stabilizer 18, 2-(3',5'-dimethyl-4'-ethoxy-phenyl)-indole]	1	1 GARDNER degrees	2	3	10	11	13 GARDNER degrees	
c1ccc(-c2cc3ccccc3[nH]2)cc1 [2-phenyl-indole]	1	2 GARDNER degrees and 1 GARDNER degrees						Condition of sheet [2]: completely burnt; Burning of sheet along its edges ([1]; Compound A, 210° C, after 15 minutes): burnt along its edges after 15 minutes; Coloration of sheet ([1]; Compound C, 210° C, 0 min): 1 GARDNER degrees; Coloration of sheet ([1]; Compound C, 210° C, 10 min): 1.5 GARDNER degrees; Coloration of sheet ([1]; Compound C, 210° C, 20 min): 2 GARDNER degrees; Coloration of sheet ([1]; Compound C, 210° C, 30 min): < 3 GARDNER degrees; Coloration of sheet ([1]; Compound C, 210° C, 40 min): 3 GARDNER degrees; Coloration of sheet ([1]; Compound C, 210° C, 50 min): > 3 GARDNER degrees; Coloration of sheet ([1]; Compound C, 210° C, 55 min): 3.5 GARDNER degrees; Coloration of sheet ([1]; Compound C, 210° C, 60 min): > 4 GARDNER degrees; Coloration of sheet ([1]; Compound D, 185° C, 0 min): 1 GARDNER degrees; Coloration of sheet ([1]; Compound D, 185° C, 10 min): 1 GARDNER degrees; Coloration of sheet ([1]; Compound D, 185° C, 20 min): < 2 GARDNER degrees; Coloration of sheet ([1]; Compound D, 185° C, 30 min): 2 GARDNER degrees
CCCCCCCCCCCCc1cc(-c2cc3ccccc3[nH]2)ccc1O [Stabilizer 19, 2-(3'-dodecyl-4'-hydroxy-phenyl)-indole]	1	1 GARDNER degrees	3	6	6	11	16 GARDNER degrees	
COc1ccc(-c2cc3ccccc3[nH]2)cc1C1CCCCC1 [Stabilizer 16, 2-(3'-cyclohexyl-4'-methoxy-phenyl)-indole]	1	1 GARDNER degrees	2	3	9	13	Burnt	
COc1cc(-c2cc3ccccc3[nH]2)ccc1O [Stabilizer 2, 2-(3'-methoxy-4'-hydroxy-phenyl)-indole]								Coloration of sheet ([1]; Compound C, 210° C, 0 min): < 1 GARDNER degrees; Coloration of sheet ([1]; Compound C, 210° C, 10 min): 1 GARDNER degrees; Coloration of sheet ([1]; Compound C, 210° C, 20 min): 1.5 GARDNER degrees; Coloration of sheet ([1]; Compound C, 210° C, 30 min): 2 GARDNER degrees; Coloration of sheet ([1]; Compound C, 210° C, 40 min): 2.5 GARDNER degrees; Coloration of sheet ([1]; Compound C, 210° C, 50 min): < 3 GARDNER degrees; Coloration of sheet ([1]; Compound C, 210° C, 55 min): 3 GARDNER degrees; Coloration of sheet ([1]; Compound C, 210° C, 60 min): < 4 GARDNER degrees; Coloration of sheet ([1]; Compound D, 185° C, 0 min): < 1 GARDNER degrees; Coloration of sheet ([1]; Compound D, 185° C, 10 min): < 1 GARDNER degrees; Coloration of sheet ([1]; Compound D, 185° C, 20 min): 1 GARDNER degrees; Coloration of sheet ([1]; Compound D, 185° C, 30 min): < 2 GARDNER degrees
COc1ccc(-c2cc3ccccc3[nH]2)cc1C(C)C [Stabilizer 15, 2-(3'-isopropyl-4'-methoxy-phenyl)-indole]	1	1 GARDNER degrees	2	4	11	13	Burnt	
COc1ccc(-c2cc3ccccc3[nH]2)cc1O [Stabilizer 13, 2-(3'-hydroxy-4'-methoxy-phenyl)-indole]	1	1 GARDNER degrees	1	4	7	10	Burnt	
COc1cc(-c2cc3ccccc3[nH]2)cc(OC)c1OC [Stabilizer 37, 2-(3',4',5'-trimethoxy-phenyl)-indole]	1	1 GARDNER degrees	2	2	8	10	12 GARDNER degrees	
CCCCCCCCCCCCOc1ccc(-c2cc3ccccc3[nH]2)cc1OC [Stabilizer 24, 2-(3'-methoxy-4'-dodecyloxy-phenyl)-indole]	1	1 GARDNER degrees	1	4	10	13	Burnt	
